Some entries share one result that the patent states for a list of compounds.
System: DASMC mitochondria
Assay: Mitochondrial membrane potential in DASMCs (JC-1, TMRM)
Format: cell-based, human
Experimental: Mitochondrial membrane potential (Δψm) was measured using two independent and well-validated probes JC-1 and TMRM (tetramethyl rhodamine methyl ester), as previously described in Michelakis E D, et al. (2002) Circ Res. 90:1307-15.
First-passage cultured DASMC were loaded with either JC-1 (1 μM) or TMRM (20 nM) for 30 minutes (37° C.) at 37 C. Confocal images were obtained within 30 minutes using a Zeiss Axiovert 100M inverted microscope equipped with an Apochromat 40×1.2 water-corrected objective. Settings (amplifier gain, pin hole size and filter set) were kept constant between experiments.
[…]. JC-1 fluoresces in the red spectra in hyperpolarized mitochondria (high Δψm) and in the green spectra in depolarized mitochondria (low Δψm). KCl (40 mM) was used to clamp the plasmalemmal membrane potential in some experiments. […] TMRM binds the inner and outer aspects of the inner mitochondrial membrane and accumulates in the mitochondria at greater quantities than predicted by the Nernst equation. TMRM fluorescence red in proportion to ψm. A 488 nm Argon laser was used for excitation and the resultant red/green fluorescence was quantified in channels 1 and 2 using LP 560 nm and BP 505-530 nm filters, respectively. 8-bit images were collected with a laser loiter time of 4.48 μs/pixel. Pinholes yielded optical slices of 1 μm. Results are expressed as the ratio of red/green channel fluorescence.

C=C(C)[C@H]1Cc2c(ccc3c2O[C@@H]2COc4cc(OC)c(OC)cc4[C@@H]2C3=O)O1 [rotenone]
time to depolarization of ψm in human DASMCs: 1 to 2 min

Source: patent publication US20040127447A1, “Augmentation of K+ channel expression using adenoviral vectors” (priority 2002, published 2004)
